Measured values taken from the supplement of paper PMC12823440, “Inhibitors supercharge kinase turnover through native proteolytic circuits” (Nature, 2025).
Where a name gives a salt, the structure may show the parent alone. The list shows a part of the results. Hit calls seldom repeat between salt and free forms of one compound.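 Kinases were expressed as nanoluciferase fusions in K562 cells and luminescence was read every 4 h between 2 and 18 h as percent of control, DMSO set to 100% and a positive control to 0%. A time point counts as decreased when the signal drops significantly (2 sigma). The hit call is the authors' own, does not follow from the count of time points alone, and its rule is not shown.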

Sequences of proteins named here, by UniProt entry; tags and fusion partners are left off. A change or cut given only in a name is not applied to a line headed by its entry.
UniProt P21860, whole entry: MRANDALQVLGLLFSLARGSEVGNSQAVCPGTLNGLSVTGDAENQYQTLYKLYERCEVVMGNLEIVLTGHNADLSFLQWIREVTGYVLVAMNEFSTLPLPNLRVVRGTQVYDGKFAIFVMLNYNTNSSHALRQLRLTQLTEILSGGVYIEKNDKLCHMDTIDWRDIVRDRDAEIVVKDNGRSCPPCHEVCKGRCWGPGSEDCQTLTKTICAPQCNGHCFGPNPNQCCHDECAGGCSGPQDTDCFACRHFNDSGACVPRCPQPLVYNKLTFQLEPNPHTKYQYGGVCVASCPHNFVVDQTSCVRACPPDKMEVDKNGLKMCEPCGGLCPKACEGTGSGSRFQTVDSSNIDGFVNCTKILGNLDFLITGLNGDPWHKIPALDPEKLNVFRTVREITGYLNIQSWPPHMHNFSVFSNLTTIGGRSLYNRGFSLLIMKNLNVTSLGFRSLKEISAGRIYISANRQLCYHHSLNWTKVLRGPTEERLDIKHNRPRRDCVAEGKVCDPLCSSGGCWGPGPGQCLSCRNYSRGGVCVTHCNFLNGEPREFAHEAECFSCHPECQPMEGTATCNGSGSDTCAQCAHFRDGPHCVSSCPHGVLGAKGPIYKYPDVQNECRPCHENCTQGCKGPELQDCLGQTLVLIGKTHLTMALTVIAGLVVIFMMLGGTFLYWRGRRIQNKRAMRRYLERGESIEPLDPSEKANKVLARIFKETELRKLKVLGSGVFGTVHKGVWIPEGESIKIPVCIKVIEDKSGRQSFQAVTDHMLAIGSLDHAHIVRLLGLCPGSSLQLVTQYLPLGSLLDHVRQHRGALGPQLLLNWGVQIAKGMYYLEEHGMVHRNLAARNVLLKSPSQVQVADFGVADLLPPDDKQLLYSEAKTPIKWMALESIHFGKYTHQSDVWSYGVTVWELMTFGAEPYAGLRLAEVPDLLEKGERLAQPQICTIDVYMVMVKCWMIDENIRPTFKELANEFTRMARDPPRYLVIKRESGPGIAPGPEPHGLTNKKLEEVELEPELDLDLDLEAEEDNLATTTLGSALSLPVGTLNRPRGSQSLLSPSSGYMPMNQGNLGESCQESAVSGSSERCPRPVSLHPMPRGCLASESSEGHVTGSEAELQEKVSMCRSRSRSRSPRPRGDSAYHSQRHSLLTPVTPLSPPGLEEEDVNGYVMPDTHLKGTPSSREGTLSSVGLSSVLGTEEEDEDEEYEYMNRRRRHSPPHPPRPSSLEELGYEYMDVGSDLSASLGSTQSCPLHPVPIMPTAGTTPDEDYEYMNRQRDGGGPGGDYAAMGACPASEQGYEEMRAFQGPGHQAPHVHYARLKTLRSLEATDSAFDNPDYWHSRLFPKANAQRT
UniProt O75460: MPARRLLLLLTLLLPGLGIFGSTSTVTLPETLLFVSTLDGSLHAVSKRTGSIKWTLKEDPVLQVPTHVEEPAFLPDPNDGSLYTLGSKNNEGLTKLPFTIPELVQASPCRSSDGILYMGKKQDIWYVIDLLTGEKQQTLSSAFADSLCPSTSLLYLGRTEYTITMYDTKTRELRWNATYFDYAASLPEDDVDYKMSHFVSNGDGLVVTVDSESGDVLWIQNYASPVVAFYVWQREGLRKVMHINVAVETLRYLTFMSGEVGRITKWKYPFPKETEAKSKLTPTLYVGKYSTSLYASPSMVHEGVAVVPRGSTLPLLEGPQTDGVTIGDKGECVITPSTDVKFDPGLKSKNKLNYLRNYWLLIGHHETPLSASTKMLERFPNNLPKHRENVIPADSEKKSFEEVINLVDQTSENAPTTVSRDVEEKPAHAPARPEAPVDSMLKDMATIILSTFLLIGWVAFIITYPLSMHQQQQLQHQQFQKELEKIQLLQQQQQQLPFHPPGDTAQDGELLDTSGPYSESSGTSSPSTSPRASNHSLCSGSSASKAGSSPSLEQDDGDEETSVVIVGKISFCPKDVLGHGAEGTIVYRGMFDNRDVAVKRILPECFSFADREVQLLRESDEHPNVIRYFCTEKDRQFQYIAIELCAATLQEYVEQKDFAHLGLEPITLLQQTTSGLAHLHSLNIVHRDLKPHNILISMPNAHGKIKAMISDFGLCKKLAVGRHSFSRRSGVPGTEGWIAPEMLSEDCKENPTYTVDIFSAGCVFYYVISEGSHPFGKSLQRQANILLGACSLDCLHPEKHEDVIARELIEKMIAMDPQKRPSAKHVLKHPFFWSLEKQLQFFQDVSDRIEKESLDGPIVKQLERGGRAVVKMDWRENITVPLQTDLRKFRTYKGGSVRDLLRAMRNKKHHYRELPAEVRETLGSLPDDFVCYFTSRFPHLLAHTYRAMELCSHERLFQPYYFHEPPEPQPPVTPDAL
UniProt P21802, whole entry, looked up: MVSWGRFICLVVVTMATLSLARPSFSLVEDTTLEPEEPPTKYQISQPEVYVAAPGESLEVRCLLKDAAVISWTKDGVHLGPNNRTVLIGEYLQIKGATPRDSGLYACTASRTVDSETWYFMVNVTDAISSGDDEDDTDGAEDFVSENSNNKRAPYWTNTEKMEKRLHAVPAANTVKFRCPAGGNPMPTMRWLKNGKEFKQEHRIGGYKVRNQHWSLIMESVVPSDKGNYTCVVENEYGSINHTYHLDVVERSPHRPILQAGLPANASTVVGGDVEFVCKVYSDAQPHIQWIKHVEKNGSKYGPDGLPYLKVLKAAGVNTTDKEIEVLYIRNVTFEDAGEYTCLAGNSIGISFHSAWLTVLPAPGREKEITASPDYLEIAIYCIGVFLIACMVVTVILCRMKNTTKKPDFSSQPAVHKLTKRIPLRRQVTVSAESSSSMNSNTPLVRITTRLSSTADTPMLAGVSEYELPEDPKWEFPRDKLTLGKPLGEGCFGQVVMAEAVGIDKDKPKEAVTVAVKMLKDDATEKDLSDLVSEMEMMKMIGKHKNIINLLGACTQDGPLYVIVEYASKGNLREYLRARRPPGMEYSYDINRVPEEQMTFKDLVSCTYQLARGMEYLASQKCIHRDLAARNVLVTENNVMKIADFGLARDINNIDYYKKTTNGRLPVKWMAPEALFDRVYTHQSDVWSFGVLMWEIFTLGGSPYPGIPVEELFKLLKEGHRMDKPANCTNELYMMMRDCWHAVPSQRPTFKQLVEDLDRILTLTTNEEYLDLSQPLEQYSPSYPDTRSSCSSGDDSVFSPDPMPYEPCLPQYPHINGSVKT
UniProt P49840: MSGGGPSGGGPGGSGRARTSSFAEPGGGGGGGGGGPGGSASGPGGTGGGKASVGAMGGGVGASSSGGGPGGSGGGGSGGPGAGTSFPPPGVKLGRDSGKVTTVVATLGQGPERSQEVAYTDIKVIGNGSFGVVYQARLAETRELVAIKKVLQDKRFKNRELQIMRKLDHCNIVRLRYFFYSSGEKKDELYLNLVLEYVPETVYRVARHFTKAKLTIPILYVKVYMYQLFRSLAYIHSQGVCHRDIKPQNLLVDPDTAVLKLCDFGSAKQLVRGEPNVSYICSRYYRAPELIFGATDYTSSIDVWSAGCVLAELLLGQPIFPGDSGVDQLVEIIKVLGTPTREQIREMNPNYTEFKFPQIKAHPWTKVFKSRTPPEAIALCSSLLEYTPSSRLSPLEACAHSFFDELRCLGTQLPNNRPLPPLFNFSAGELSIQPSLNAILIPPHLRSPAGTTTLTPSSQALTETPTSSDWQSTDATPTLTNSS
UniProt P23458: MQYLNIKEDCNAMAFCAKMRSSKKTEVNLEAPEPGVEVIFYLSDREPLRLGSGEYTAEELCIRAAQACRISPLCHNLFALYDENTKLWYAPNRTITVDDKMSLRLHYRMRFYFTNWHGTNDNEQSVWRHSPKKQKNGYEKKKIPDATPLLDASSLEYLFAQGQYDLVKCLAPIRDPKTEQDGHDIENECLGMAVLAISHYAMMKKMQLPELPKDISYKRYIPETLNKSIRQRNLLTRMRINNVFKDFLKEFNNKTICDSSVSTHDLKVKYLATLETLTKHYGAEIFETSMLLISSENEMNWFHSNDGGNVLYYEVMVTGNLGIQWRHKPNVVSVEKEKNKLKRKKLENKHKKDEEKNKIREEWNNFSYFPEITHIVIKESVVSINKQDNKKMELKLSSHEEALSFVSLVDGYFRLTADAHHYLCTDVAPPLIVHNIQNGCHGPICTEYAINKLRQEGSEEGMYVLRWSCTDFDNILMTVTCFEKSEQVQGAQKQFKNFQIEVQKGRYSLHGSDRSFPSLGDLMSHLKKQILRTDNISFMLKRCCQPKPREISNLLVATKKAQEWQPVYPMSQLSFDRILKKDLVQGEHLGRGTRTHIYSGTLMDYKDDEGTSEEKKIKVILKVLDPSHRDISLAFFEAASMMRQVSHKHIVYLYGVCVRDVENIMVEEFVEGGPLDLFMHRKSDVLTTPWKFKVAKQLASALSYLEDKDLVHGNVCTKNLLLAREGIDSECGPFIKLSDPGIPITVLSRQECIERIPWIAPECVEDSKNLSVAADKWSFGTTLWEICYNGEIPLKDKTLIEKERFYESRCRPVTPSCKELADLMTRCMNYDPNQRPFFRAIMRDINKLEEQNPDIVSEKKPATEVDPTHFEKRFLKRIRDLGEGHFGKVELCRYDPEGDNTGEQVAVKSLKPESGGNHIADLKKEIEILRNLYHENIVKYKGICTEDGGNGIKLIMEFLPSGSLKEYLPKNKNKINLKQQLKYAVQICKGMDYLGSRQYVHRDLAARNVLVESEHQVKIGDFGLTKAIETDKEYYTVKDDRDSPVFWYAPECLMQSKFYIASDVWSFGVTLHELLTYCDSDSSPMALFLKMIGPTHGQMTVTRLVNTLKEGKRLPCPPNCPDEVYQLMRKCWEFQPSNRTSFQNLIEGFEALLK
UniProt P06239: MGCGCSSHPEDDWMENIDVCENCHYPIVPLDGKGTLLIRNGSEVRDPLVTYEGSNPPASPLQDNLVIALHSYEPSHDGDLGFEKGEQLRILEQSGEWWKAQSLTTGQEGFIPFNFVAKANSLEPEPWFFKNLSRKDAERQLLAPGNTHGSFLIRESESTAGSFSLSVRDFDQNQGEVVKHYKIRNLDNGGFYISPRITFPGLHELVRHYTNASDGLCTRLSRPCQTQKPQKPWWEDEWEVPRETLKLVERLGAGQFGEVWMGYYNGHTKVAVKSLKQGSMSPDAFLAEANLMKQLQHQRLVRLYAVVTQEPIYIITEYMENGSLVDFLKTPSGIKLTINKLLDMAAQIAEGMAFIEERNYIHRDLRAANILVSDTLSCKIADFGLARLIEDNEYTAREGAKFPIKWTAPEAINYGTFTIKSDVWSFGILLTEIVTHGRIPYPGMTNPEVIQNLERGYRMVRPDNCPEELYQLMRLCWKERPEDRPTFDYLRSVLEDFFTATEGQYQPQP
UniProt P53667: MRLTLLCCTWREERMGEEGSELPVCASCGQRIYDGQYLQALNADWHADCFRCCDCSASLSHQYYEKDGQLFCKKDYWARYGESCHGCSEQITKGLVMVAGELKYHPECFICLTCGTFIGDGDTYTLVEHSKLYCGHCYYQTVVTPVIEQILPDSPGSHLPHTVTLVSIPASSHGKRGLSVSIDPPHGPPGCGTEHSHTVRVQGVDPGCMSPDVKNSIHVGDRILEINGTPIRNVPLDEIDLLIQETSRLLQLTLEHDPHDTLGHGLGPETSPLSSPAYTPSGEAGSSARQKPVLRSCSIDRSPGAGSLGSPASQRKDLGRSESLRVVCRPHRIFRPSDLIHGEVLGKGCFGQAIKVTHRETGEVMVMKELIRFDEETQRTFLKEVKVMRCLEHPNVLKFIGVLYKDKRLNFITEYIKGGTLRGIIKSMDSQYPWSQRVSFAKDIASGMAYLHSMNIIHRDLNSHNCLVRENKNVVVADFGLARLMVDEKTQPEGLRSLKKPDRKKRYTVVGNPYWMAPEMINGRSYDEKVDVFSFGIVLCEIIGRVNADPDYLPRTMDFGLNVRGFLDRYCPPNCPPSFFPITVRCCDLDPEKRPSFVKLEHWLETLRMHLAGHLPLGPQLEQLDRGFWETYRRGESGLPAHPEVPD
UniProt P53671: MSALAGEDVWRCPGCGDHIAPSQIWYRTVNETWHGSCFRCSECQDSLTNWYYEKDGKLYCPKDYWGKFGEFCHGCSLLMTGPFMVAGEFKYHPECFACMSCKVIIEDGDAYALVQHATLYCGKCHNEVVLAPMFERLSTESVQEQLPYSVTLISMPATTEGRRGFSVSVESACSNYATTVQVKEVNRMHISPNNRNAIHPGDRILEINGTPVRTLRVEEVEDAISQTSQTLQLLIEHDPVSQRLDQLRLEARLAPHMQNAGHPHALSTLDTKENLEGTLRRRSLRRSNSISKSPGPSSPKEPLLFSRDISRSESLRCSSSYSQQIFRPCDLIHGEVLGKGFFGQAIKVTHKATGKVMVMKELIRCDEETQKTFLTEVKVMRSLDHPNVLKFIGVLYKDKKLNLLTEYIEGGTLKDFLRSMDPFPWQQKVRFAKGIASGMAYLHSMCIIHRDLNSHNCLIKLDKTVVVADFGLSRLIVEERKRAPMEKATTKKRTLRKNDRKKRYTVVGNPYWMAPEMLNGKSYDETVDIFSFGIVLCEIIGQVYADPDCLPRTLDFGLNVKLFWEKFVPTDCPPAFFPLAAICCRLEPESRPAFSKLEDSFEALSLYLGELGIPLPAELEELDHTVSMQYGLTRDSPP

Assays:
Experiment in all cases: number of time points (of 5) at which kinase-Nluc abundance scored as decreased, DMSO-normalised (count); higher = more persistent destabilization
Settings in all cases: K562; 2-18 h
EGFR_L861Q = EGFR_L861Q (UniProt P00533)
EGFR_T790M = EGFR_T790M (UniProt P00533)
EPHA2 = EPHA2 (UniProt P29317)
ERBB3 = ERBB3 (UniProt P21860)
[1] = target: ERBB4_R711C (clone: ERBB4_mut) (UniProt Q15303)
ERN1 = ERN1 (UniProt O75460)
FGFR1 = FGFR1 (UniProt P11362)
FGFR2 = FGFR2 (UniProt P21802)
FGFR3 = FGFR3 (UniProt P22607)
FGR = FGR (UniProt P09769)
FLT3 = FLT3 (UniProt P36888)
FYN = FYN (UniProt P06241)
GSK3A = GSK3A (UniProt P49840)
HER2 = HER2 (UniProt P04626)
INSRR = INSRR (UniProt P14616)
IRAK3 = IRAK3 (UniProt Q9Y616)
JAK1 = JAK1 (UniProt P23458)
LCK = LCK (UniProt P06239)
LIMK1 = LIMK1 (UniProt P53667)
LIMK2 = LIMK2 (UniProt P53671)

Measured: number of time points

O=C(Nc1cccnc1)c1cc(-c2ccnc(F)c2)ccc1OCc1ccccc1 (10 µM)
0: all assays above

NC1(C(=O)NCCCn2cc(-c3ccc(OC(F)(F)F)cc3)c3cc(CN4CCN(Cc5c(Cl)cccc5Cl)CC4)ccc32)CCNCC1 (2.5 µM)
1: FYN
0: all other assays above

CC(Sc1nc2c(cnn2-c2cccc(Cl)c2)c(=O)[nH]1)C(N)=O (stereo not given) (10 µM)
0: all assays above

Nc1nc(NCCNc2ncc(-n3ccnc3)c(-c3ccc(Cl)cc3Cl)n2)ccc1[N+](=O)[O-] (2.5 µM)
1: EPHA2 | ERBB3 | FGFR1 | HER2
0: all other assays above

NC[C@@](O)(c1ccc(Cl)cc1)c1ccc(-c2cn[nH]c2)cc1 (10 µM)
0: all assays above

Two records drawn at random from the list so far:
NC1(C(=O)NCCCn2cc(-c3ccc(OC(F)(F)F)cc3)c3cc(CN4CCN(Cc5c(Cl)cccc5Cl)CC4)ccc32)CCNCC1 (2.5 µM)
1: FYN
0: all other assays above

Nc1nc(NCCNc2ncc(-n3ccnc3)c(-c3ccc(Cl)cc3Cl)n2)ccc1[N+](=O)[O-] (2.5 µM)
1: EPHA2 | ERBB3 | FGFR1 | HER2
0: all other assays above

Continuation.

N#Cc1ccc2ncnc(NCCc3ccccc3)c2c1 [Senexin A] (10 µM)
0: all assays above

N[C@@H]1CCCN(c2c(/C=C3\SC(=O)NC3=O)cccc2-c2ccccc2)C1 (10 µM)
2: LIMK1
1: [1] | FYN
0: all other assays above

COC(=O)[C@H](CCSC)NC(=O)c1ccc(NC[C@@H](N)CS)cc1-c1ccccc1 [FTI-277 (hydrochloride)] (10 µM)
0: all assays above

Cc1nc[nH]c1CN1CCN(C(=O)N[C@@H](CC(C)C)C(=O)O)[C@@H](Cc2ccccc2)C1=O (10 µM)
0: all assays above

Cc1cc(C(=O)Nc2nc3cccc(Cl)c3n2[C@@H]2CCCCN(C(=O)/C=C/CN(C)C)C2)ccn1 [Nazartinib] (10 µM)
1: HER2
0: all other assays above

COCCOc1ccc2c(c1)ncn2-c1ccc2cccc(N3CCC(N)CC3)c2n1 (10 µM)
2: EPHA2 | HER2 | INSRR
4: [1] | FYN
3: EGFR_L861Q | ERBB3 | FGFR1 | FGFR2 | FLT3 | IRAK3 | JAK1
0: all other assays above

Cn1c(=O)c2c(nc(S(C)(=O)=O)n2C)n(CC#Cc2cccc(O)c2)c1=O (2.5 µM)
1: HER2 | INSRR
2: FYN
0: all other assays above

N#Cc1cnc2c(Cl)cc(NCc3cn(CCN4CCCCCC4)nn3)cc2c1Nc1ccc(F)c(Cl)c1 [Cot inhibitor-1] (10 µM)
4: LIMK2
1: EGFR_L861Q
0: all other assays above

C[C@H]1O[C@@H](O[C@H]2CC[C@@]3(C)[C@@H](CC[C@]4(C)[C@@H]3C=C[C@]35OC[C@@]6(CCC(C)(C)C[C@H]63)[C@H](O)C[C@]54C)[C@]2(C)CO)[C@H](O)[C@@H](O[C@@H]2O[C@H](CO)[C@@H](O)[C@H](O)[C@H]2O)[C@H]1O [Saikosaponin D] (2.5 µM)
3: FGFR2
1: [1] | LIMK2
0: all other assays above

Cc1cc(Nc2cc(N)ncn2)c(=O)n2c1C(=O)NC21CCCCC1 [Tomivosertib] (10 µM)
0: all assays above

Nc1nc(N)c2nc(-c3cccc(O)c3)c(-c3cccc(O)c3)nc2n1 (10 µM)
0: all assays above

Cc1cc(CSc2ccccc2C(=O)NCCNc2ccc(C(F)(F)F)cc2[N+](=O)[O-])on1 (10 µM)
0: all assays above

O=C(NCCN1CCOCC1)Nc1nc2ccc(Sc3nnc4ccc(-c5ccc(F)cc5)nn34)cc2s1 (10 µM)
0: all assays above

COc1cc2c(cc1O)C[C@H]1c3cc(O)c(OC)cc3CC[N@@+]1(C)C2 [Phellodendrine] (10 µM)
0: all assays above

CNC(=O)CNc1cnc2ccc(-c3ccc(OC)c(OC)c3)cc2n1 (10 µM)
0: all assays above

CC(C)CCN1c2nc(Nc3cc(F)c(O)c(F)c3)ncc2N(C)C(=O)C1C (stereo not given) (2.5 µM)
0: all assays above

Cc1cccc(/C=N/Nc2cc(N3CCOCC3)n3nc(-c4ccncc4)cc3n2)c1 (10 µM)
1: JAK1
0: all other assays above

CC(C)n1ncnc1-c1cn2c(n1)-c1ccc(O[C@@H](C)C(N)=O)cc1OCC2 (10 µM)
0: all assays above

Cc1c(C(=O)Nc2ccc(Oc3ccnc4[nH]cc(-c5ccccc5)c34)c(F)c2)c(=O)n(-c2ccc(F)cc2)n1C (10 µM)
2: FGFR2 | LIMK1
1: FGFR1 | INSRR
0: all other assays above
